System: brine shrimp larvae (Artemia salina L.)
Assay: Artemia saline lethality test
Assay type: in vivo
Settings: 24 h, 100-1000 ppm in triplicate
Procedure: . The surviving shrimp were counted after 24 h and the percentage of deaths was determined by the computation of half lethal concentration 50 (LC50) (Fig. 1).

Work on `CCN(CC)CC(=O)Nc1c(C)cccc1C` [Lidocaine, reference compound] yielded an LC50 of 265.2 ± 24.4 ppm.

Reference: PMC5156471, “Complementary pharmacological and toxicological characterization data on the pharmacological profile of N-(2,6-dichlorophenyl)-2-(4-methyl-1-piperidinyl) acetamide” (Data in Brief, 2016)
